Measurements reported in the supplement of paper PMC7024190.
Where a name gives a salt, the structure may show the parent alone. This is one part of the list. Repeats in this data set agree poorly, so a single value says little.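 The cells were human embryonic kidney cells carrying a Renilla luciferase gene, driven by the HSV-TK promoter, on a plasmid put in briefly by transfection. This is the first-round screen of about ten thousand compounds, looking for ones that raise reporter output.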

tested on: HEK 293FT; test: log relative Renilla luciferase luminescence (reporter expression vs reference, reference not stated) (log (base not stated)); higher = higher recombinant reporter expression; conditions: 10 µM; time after transfection 48 h

`O=C(Nc1ccccc1)OCC(CN1CCCCC1)OC(=O)Nc1ccccc1` (centres undefined) [diperodon hydrochloride] and `Cc1ccc(C(=O)C(C)CN2CCCCC2)cc1` (centres undefined) [tolperisone hydrochloride] are within 0.2 log units of each other in log: -0.00278 for the first, 0.0807 for the second.

`COc1c(O)cc(O)cc1O` [iretol] and `Cc1cc(O)cc(O)c1C(=O)O` [orsellinic acid] are within 0.2 log units of each other in log: -0.0111 for the first, 0.0989 for the second.

`CCCCC1C(=O)N(c2ccccc2)N(c2ccccc2)C1=O` [phenylbutazone] and `O=C1N=C(O)NC1(c1ccccc1)c1ccccc1` [phenytoin sodium] are within 0.2 log units of each other in log: -0.0898 for the first, -0.0895 for the second.

`O=C(O)/C=C/C=C/c1ccccc1` [juarezic acid] and `COc1cc(O)c(C(=O)c2ccccc2)cc1O` [cearoin] are within 0.2 log units of each other in log: 0.166 for the first, 0.0987 for the second.

`COCCCOc1cc(C[C@@H](C[C@H](N)[C@@H](O)C[C@H](C(=O)NCC(C)(C)C(N)=O)C(C)C)C(C)C)ccc1OC` [aliskiren hemifumarate] and `COc1ccc2c(c1)OC[C@@H](Cc1ccc(OC)c(OC)c1)[C@@H]2O` [3-deshydroxysappanol trimethyl ether] are within 0.2 log units of each other in log: -0.0213 for the first, 0.0596 for the second.

Going from `CCCCOC(=O)c1ccc(O)cc1` [butyl paraben] to `COc1ccc2c(c1)c(CC(=O)OCC(=O)O)c(C)n2C(=O)c1ccc(Cl)cc1` [acemetacin], the log rises from -0.176 to 0.0552.

Compared with `C#C[C@]1(OC(C)=O)CC[C@H]2[C@@H]3CCC4=CC(=O)CC[C@@H]4[C@H]3CC[C@@]21C` [norethindrone acetate], `C#CC1(O)CC[C@H]2[C@@H]3CCC4=CC(=O)CC[C@@H]4[C@H]3CC[C@@]21CC` (some centres undefined) [norgestrel] is lower in log: 0.0668 for the first, -0.278 for the second.

First: CCCc1nc2c(C)cc(-c3nc4ccccc4n3C)cc2n1Cc1ccc(-c2ccccc2C(=O)O)cc1 [telmisartan]
Second: CC[N+](CC)(CC(=O)Nc1c(C)cccc1C)Cc1ccccc1 [denatonium benzoate]
The log of the first is lower: -0.13 for the first, 0.213 for the second.

`CC(=O)/N=c1/sc(S(N)(=O)=O)nn1C` [methazolamide] and `CC(C)Cn1c(=O)n(C)c(=O)c2nc[nH]c21` [isobutylmethylxanthine] are within 0.2 log units of each other in log: 0.0241 for the first, -0.0457 for the second.

Compared with `CC1=CC(=O)c2ccccc2C1=O` [menadione], `CC1=C(C(=O)O)N2C(=O)[C@@H](NC(=O)[C@H](N)c3ccccc3)[C@H]2SC1` [cephalexin] is higher in log: -0.222 for the first, 0.00121 for the second.

`COc1ccc(-c2cc(=O)c3c(O)c(OC)c(OC)c(OC)c3o2)cc1OC` [demethylnobiletin] and `COc1cc(C(C)=O)cc(OC)c1O` [acetosyringone] are within 0.2 log units of each other in log: 0.102 for the first, 0.143 for the second.

`N=C(N)N1CCc2ccccc2C1` [debrisoquin sulfate] and `O=C(c1cccnc1)N1CCOCC1` [nicopholine] are within 0.2 log units of each other in log: 0.0342 for the first, 0.0983 for the second.

First: CC(C)=CCC/C(C)=C\CO [nerol]
Second: CC(C)=CC1C(C(=O)O)C1(C)C (centres undefined) [chrysanthemic acid]
The log of the first is higher: 0.17 for the first, -0.0709 for the second.

`COCCCOc1ccnc(C[S+]([O-])c2nc3ccccc3[nH]2)c1C` (centres undefined) [rabeprazole sodium] and `CNCC[C@@H](Oc1ccccc1C)c1ccccc1` [atomoxetine hydrochloride] are within 0.2 log units of each other in log: -0.0622 for the first, 0.079 for the second.

`O=C(O)Cc1cc(I)c(Oc2ccc(O)c(I)c2)c(I)c1` [tiratricol] and `O=C(CCCCC(=O)Nc1c(I)cc(I)c(C(=O)O)c1I)Nc1c(I)cc(I)c(C(=O)O)c1I` [iodipamide] are within 0.2 log units of each other in log: -0.0573 for the first, -0.204 for the second.

`CC(C)(C)NCC(O)COc1cccc2c1CC(O)C(O)C2` (centres undefined) [nadolol] and `COc1ccc2c3c1O[C@H]1C[C@@H](O)C=C[C@@]31CCN(C)C2` [galantamine] are within 0.2 log units of each other in log: -0.0348 for the first, -0.0606 for the second.

`CN(C)CC(=O)OC[C@@H](O)[C@@H](O)[C@H](O)[C@@H](O)C(=O)O` [pangamic acid sodium] and `OCC(O)C(O)C(O)CO` (centres undefined) [arabitol(d)] are within 0.2 log units of each other in log: -0.0505 for the first, 0.0403 for the second.

`CC[C@H](C)C(=O)O[C@H]1C[C@H](O)C=C2C=C[C@H](C)[C@H](CC[C@@H](O)C[C@@H](O)CC(=O)O)[C@H]21` [pravastatin sodium] and `CCCC(=O)O[C@]1(C(=O)CO)CC[C@H]2[C@@H]3CCC4=CC(=O)CC[C@]4(C)[C@H]3[C@@H](O)C[C@@]21C` [hydrocortisone butyrate] are within 0.2 log units of each other in log: 0.0267 for the first, 0.0405 for the second.

`Cc1nccn1CC1CCc2c(c3ccccc3n2C)C1=O` (centres undefined) [ondansetron] and `CC(=O)CC(c1ccc([N+](=O)[O-])cc1)c1c(O)c2ccccc2oc1=O` (centres undefined) [acenocoumarol] are within 0.2 log units of each other in log: -0.0569 for the first, 0.0749 for the second.

`NC(=O)c1cc[n+](CC2=C(C(=O)[O-])N3C(=O)[C@@H](NC(=O)Cc4cccs4)[C@H]3SC2)cc1` [cefalonium] and `Cc1nnc(SCC2=C(C(=O)O)N3C(=O)[C@@H](NC(=O)Cn4cnnn4)[C@H]3SC2)s1` [cefazolin sodium] are within 0.2 log units of each other in log: 0.0443 for the first, 0.119 for the second.

`O=C1C(O)=C(O)C(=O)C(O)=C1O` [tetroquinone] and `CN(C)c1cc(NC(=O)CNC(C)(C)C)c(O)c2c1C[C@H]1C[C@H]3[C@H](N(C)C)C(O)=C(C(N)=O)C(=O)[C@@]3(O)C(O)=C1C2=O` [tigecycline] are within 0.2 log units of each other in log: 0.202 for the first, 0.246 for the second.

Going from `CC(=O)NC[C@H]1CN(c2ccc(N3CCOCC3)c(F)c2)C(=O)O1` [linezolid] to `COC(=O)C[C@H]1C(C)(C)C(=O)[C@@H]2CC3C4=CC(=O)O[C@@H](c5ccoc5)[C@]4(C)CC[C@@H]3[C@@]1(C)C2=O` (some centres undefined) [carapin], the log rises from -0.0491 to 0.265.

Going from `Cc1c2oc3c(C)ccc(C(=O)N[C@@H]4C(=O)N[C@H](C(C)C)C(=O)N5CCC[C@H]5C(=O)N(C)CC(=O)N(C)[C@@H](C(C)C)C(=O)O[C@@H]4C)c3nc-2c(C(=O)N[C@@H]2C(=O)N[C@H](C(C)C)C(=O)N3CCC[C@H]3C(=O)N(C)CC(=O)N(C)[C@@H](C(C)C)C(=O)O[C@@H]2C)c(N)c1=O` [dactinomycin] to `CC(=O)O[C@@H]1CC[C@@]2(C)C(C[C@@H](OC(C)=O)[C@@]3(C)C4=CC(=O)O[C@@H](c5ccoc5)[C@]4(C)CCC23)C1(C)C` (stereo partly drawn) [3alpha-acetoxydihydrodeoxygedunin], the log rises from -1.57 to 0.0463.

Going from `COc1ccc2cc3[n+](cc2c1OC)CCc1cc2c(cc1-3)OCO2` [berberine chloride] to `COc1cc2c(cc1OC)[C@@H]1C(=O)c3ccc4c(c3O[C@@H]1CO2)C=CC(C)(C)O4` [deguelin(-)], the log falls from 0.0578 to -1.29.

First: OCC(S)CS (centres undefined) [dimercaprol]
Second: OCC(O)C(O)C(O)CO (centres undefined) [adonitol]
The log of the first is lower: -0.32 for the first, 0.0873 for the second.

First: CC[C@@]1(O)C(=O)OCc2c1cc1n(c2=O)Cc2cc3c(CN(C)C)c(O)ccc3nc2-1 [topotecan hydrochloride]
Second: CC1(C)S[C@@H]2[C@H](NC(=O)COc3ccccc3)C(=O)N2[C@H]1C(=O)O [penicillin v potassium]
The log of the first is lower: -0.938 for the first, 0.022 for the second.

`Nc1nnc(-c2cccc(Cl)c2Cl)c(N)n1` [lamotrigine] and `COc1cc(NS(=O)(=O)c2ccc(N)cc2)nc(OC)n1` [sulfadimethoxine] are within 0.2 log units of each other in log: -0.056 for the first, 0.0715 for the second.

`O=C(O)/C=C(\CC(=O)O)C(=O)O` [aconitic acid] and `O=C(O)CCCC[C@@H]1CCSS1` [thioctic acid] are within 0.2 log units of each other in log: 0.0437 for the first, 0.0382 for the second.

Compared with `Nc1nc(=O)[nH]cc1F` [flucytosine], `S=c1[nH]cnc2nc[nH]c12` [mercaptopurine] is lower in log: 0.144 for the first, -0.0748 for the second.

`Cc1c(C)c2c(c(C)c1O)CCC(C)(CCCC(C)CCCC(C)CCCC(C)C)O2` (stereo not drawn) [alpha-tochopherol] and `CC(C)CCC[C@@H](C)[C@H]1CC[C@H]2[C@@H]3CC[C@H]4CC(=O)CC[C@]4(C)[C@H]3CC[C@]12C` [cholestan-3-one] are within 0.2 log units of each other in log: -0.0153 for the first, 0.0326 for the second.

Going from `CC(=O)O[C@]1(C(C)=O)CC[C@H]2[C@@H]3C=C(C)C4=CC(=O)CC[C@]4(C)[C@H]3CC[C@@]21C` [megestrol acetate] to `C[C@]12CCC3c4ccc(OS(=O)(=O)O)cc4CCC3C1CC[C@H]2O` (some centres undefined) [estradiol-3-sulfate, sodium salt], the log rises from -0.167 to 0.0695.

First: NC[C@H]1O[C@H](O[C@H]2[C@H](O)[C@@H](O[C@H]3O[C@H](CO)[C@@H](O)[C@H](N)[C@H]3O)[C@H](N)C[C@@H]2N)[C@H](N)[C@@H](O)[C@@H]1O [bekanamycin sulfate]
Second: C[C@H]1O[C@@H](O[C@H]2[C@@H](O)C[C@H](O[C@H]3[C@@H](O)C[C@H](O[C@H]4CC[C@@]5(C)[C@H](CC[C@@H]6[C@@H]5CC[C@]5(C)[C@@H](C7=CC(=O)OC7)CC[C@]65O)C4)O[C@@H]3C)O[C@@H]2C)C[C@H](O)[C@@H]1O [digitoxin]
The log of the first is higher: -0.0543 for the first, -1.49 for the second.

`O=C1OC(=O)[C@H]2[C@@H]1[C@@H]1CC[C@H]2O1` [norcantharidin] and `O=c1[nH]c(=O)n([C@H]2C[C@H](O)[C@@H](CO)O2)cc1C(F)(F)F` [trifluridine] are within 0.2 log units of each other in log: 0.0949 for the first, -0.062 for the second.

`CC(C)NC(=N)NC(=N)Nc1ccc(Cl)cc1` [chloroguanide hydrochloride] and `Cc1cccc(Nc2ccncc2S(=O)(=O)NC(=O)NC(C)C)c1` [torsemide] are within 0.2 log units of each other in log: 0.0323 for the first, 0.191 for the second.

`CCCCCCCCNC(C)C(O)c1ccc(SC(C)C)cc1` (centres undefined) [suloctidil] and `CC1=CC2C(CC1=O)C(C)=CCC2C(C)C` (centres undefined) [muurolladie-3-one] are within 0.2 log units of each other in log: -0.00899 for the first, 0.141 for the second.

`C=C(C)[C@@H]1CC[C@]2(C)CC[C@]3(C)[C@H](CC[C@@H]4[C@@]5(C)CC[C@H](O)C(C)(C)[C@@H]5CC[C@]43C)[C@@H]12` [lupeol] and `CC1(C)O[C@@H]2[C@@H](CO[C@@]3(COS(N)(=O)=O)OC(C)(C)O[C@@H]23)O1` [topiramate] are within 0.2 log units of each other in log: 0.0985 for the first, 0.123 for the second.

`CC(C)[C@@H]1CC[C@@H](C)CC1=O` [menthone] and `NCCCCN` [putrescine dihydrochloride] are within 0.2 log units of each other in log: -0.0678 for the first, 0.033 for the second.
